Some of the results follow. Repeats are few or missing, and single values can be far off.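 Cells were imaged in 1,536-well plates, and nuclei stained with an antibody against cleaved PARP were counted against all DNA-stained nuclei to give the apoptosis fraction. Screening doses were chosen to leave most cells alive, and resting and induced cleaved-PARP levels differ strongly between cell lines.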
Assays:
Experiment in all cases: cleaved PARP positive nuclei fraction relative to DMSO control; melanoma cells; higher = more apoptosis
Conditions in all cases: library dose: low library concentration; 72 h
501Mel = tested on: 501Mel
A101D = tested on: A101D
A2058 = tested on: A2058
A375 = tested on: A375
C32 = tested on: C32
CBRC013 = tested on: CBRC013 (line from a melanoma biopsy)
CBRC014 = tested on: CBRC014 (line from a melanoma biopsy)
CBRC016 = tested on: CBRC016 (line from a melanoma biopsy)
CBRC017 = tested on: CBRC017 (line from a melanoma biopsy)

Structure (SMILES)	cleaved PARP positive nuclei fraction (501Mel) [%]	cleaved PARP positive nuclei fraction (A101D) [%]	cleaved PARP positive nuclei fraction (A2058) [%]	cleaved PARP positive nuclei fraction (A375) [%]	cleaved PARP positive nuclei fraction (C32) [%]	cleaved PARP positive nuclei fraction (CBRC013) [%]	cleaved PARP positive nuclei fraction (CBRC014) [%]	cleaved PARP positive nuclei fraction (CBRC016) [%]	cleaved PARP positive nuclei fraction (CBRC017) [%]
C[As](C)SC[C@H](NC(=O)CC[C@H](N)C(=O)O)C(=O)NCC(=O)O [Darinaparsin] + Cc1cc(SCc2sc(-c3ccc(C(F)(F)F)c(F)c3)nc2C)ccc1OCC(=O)O [GW0742] (first compound 0.4 µM, partner dose 2 µM)	81	90.8	95.1	86.7	75.5	66.8	88.2	85.4	228
O=C(Nc1ccccc1)c1cc([N+](=O)[O-])ccc1Cl + C/C(O)=C(\C#N)C(=O)Nc1cc(Br)ccc1Br [LFM-A13] (first compound 2 µM, partner dose 2 µM)	76.2	55.2	93.6	71.7	116	127	86.1	353	211
CC(C)(C)c1cnc(CSc2cnc(NC(=O)C3CCNCC3)s2)o1 + C/C(O)=C(\C#N)C(=O)Nc1cc(Br)ccc1Br [LFM-A13] (first compound 0.01 µM, partner dose 2 µM)	93.5	109	51.4	89.7	114	128	104	67.1	62.5
C[As](C)SC[C@H](NC(=O)CC[C@H](N)C(=O)O)C(=O)NCC(=O)O [Darinaparsin] + Oc1nc(-c2ccc(C(F)(F)F)cc2)nc2c1CSCC2 [XAV939] (first compound 0.4 µM, partner dose 2 µM)	75	246	128	199	28.9	129	88.4	45.3	57.9
N#Cc1c(O)c2c(-c3ccc(-c4ccccc4O)cc3)csc2[nH]c1=O + Cc1cc(SCc2sc(-c3ccc(C(F)(F)F)c(F)c3)nc2C)ccc1OCC(=O)O [GW0742] (first compound 2 µM, partner dose 2 µM)	110	125	214	110	134	118	91.4	62.5	128
CC1(C)NC(=O)N(c2ccc([N+](=O)[O-])c(C(F)(F)F)c2)C1=O [nilutamide] + O=C(Oc1ccc([N+](=O)[O-])cc1)N1CCC(C(O)(c2ccc3c(c2)OCO3)c2ccc3c(c2)OCO3)CC1 [JZL184] (first compound 1 µM, partner dose 1 µM)	148	33.8	98.4	36.6	31.7	131	97	21	64.8
CN(C)S(=O)(=O)c1ccc2c(c1)/C(=C/c1cc3c([nH]1)CCCC3)C(=O)N2 + Cc1cc(SCc2sc(-c3ccc(C(F)(F)F)c(F)c3)nc2C)ccc1OCC(=O)O [GW0742] (first compound 0.4 µM, partner dose 2 µM)	50.9	188	107	142	130	175	100	87.3	107
CCc1ccc(CCOc2ccc(CC3SC(=O)NC3=O)cc2)nc1 (stereo not drawn) [pioglitazone] + O=C(Oc1ccc([N+](=O)[O-])cc1)N1CCC(C(O)(c2ccc3c(c2)OCO3)c2ccc3c(c2)OCO3)CC1 [JZL184] (first compound 2 µM, partner dose 1 µM)	73.2	191	106	35.9	68.3	42.7	109	72.7	106
CC(C)(C)c1cnc(CSc2cnc(NC(=O)C3CCNCC3)s2)o1 + O=C(Oc1ccc([N+](=O)[O-])cc1)N1CCC(C(O)(c2ccc3c(c2)OCO3)c2ccc3c(c2)OCO3)CC1 [JZL184] (first compound 0.01 µM, partner dose 1 µM)	77.5	88	56.2	90.7	111	204	98.7	102	110
Cc1cc(N2CCOCC2)cc2[nH]c(-c3c(NC[C@@H](O)c4cccc(Cl)c4)cc[nH]c3=O)nc12 + Cc1cc(SCc2sc(-c3ccc(C(F)(F)F)c(F)c3)nc2C)ccc1OCC(=O)O [GW0742] (first compound 0.2 µM, partner dose 2 µM)	183	67.3	24	159	35	114	305	70.8	87.1
O=C(Oc1ccc([N+](=O)[O-])cc1)N1CCC(C(O)(c2ccc3c(c2)OCO3)c2ccc3c(c2)OCO3)CC1 + CC(C)CCN1c2nc(Nc3cc(F)c(O)c(F)c3)ncc2N(C)C(=O)C1C [BID1870] (first compound 1 µM, partner dose 0.2 µM)	48.3	65.7	91.8	47.4	59.9	81.7	117	34.7	83.5
C=CCn1c(=O)c2cnc(Nc3ccc(N4CCN(C)CC4)cc3)nc2n1-c1cccc(C(C)(C)O)n1 + Cc1cc(SCc2sc(-c3ccc(C(F)(F)F)c(F)c3)nc2C)ccc1OCC(=O)O [GW0742] (first compound 0.02 µM, partner dose 2 µM)	69.2	132	28.5	348	133	289	105	19.1	138
CO[C@@H]1[C@H](N(C)C(=O)c2ccccc2)C[C@H]2O[C@]1(C)n1c3ccccc3c3c4c(c5c6ccccc6n2c5c31)C(=O)NC4 [Midostaurin] + C/C(O)=C(\C#N)C(=O)Nc1cc(Br)ccc1Br [LFM-A13] (first compound 0.08 µM, partner dose 2 µM)	134	331	69.2	75.7	157	35.6	104	173	201
C[C@@H]1CCN(C(=O)CC#N)C[C@@H]1N(C)c1ncnc2[nH]ccc12 + Cc1cc(SCc2sc(-c3ccc(C(F)(F)F)c(F)c3)nc2C)ccc1OCC(=O)O [GW0742] (first compound 1 µM, partner dose 2 µM)	174	121	86	28.8	128	40.4	88.8	103	201
COc1ccc(COc2ccc(Cc3cnc(N)nc3N)cc2OC)cc1 + Cc1cc(SCc2sc(-c3ccc(C(F)(F)F)c(F)c3)nc2C)ccc1OCC(=O)O [GW0742] (first compound 1 µM, partner dose 2 µM)	56.4	112	272	83.5	97.2	188	87.1	83.6	67.3
COc1cc(Nc2ncc(F)c(Nc3ccc4c(n3)NC(=O)C(C)(C)O4)n2)cc(OC)c1OC [Tamatinib] + C/C(O)=C(\C#N)C(=O)Nc1cc(Br)ccc1Br [LFM-A13] (first compound 0.4 µM, partner dose 2 µM)	125	299	157	174	157	157	106	105	227
O=C1NC(=O)/C(=C/c2ccc(-c3ccc(F)cc3O)o2)S1 + O=C(Oc1ccc([N+](=O)[O-])cc1)N1CCC(C(O)(c2ccc3c(c2)OCO3)c2ccc3c(c2)OCO3)CC1 [JZL184] (first compound 1 µM, partner dose 1 µM)	78.7	155	88.6	67.3	120	150	91.3	154	132
O=C(Nc1ccccc1)c1cc([N+](=O)[O-])ccc1Cl + Cc1cc(SCc2sc(-c3ccc(C(F)(F)F)c(F)c3)nc2C)ccc1OCC(=O)O [GW0742] (first compound 2 µM, partner dose 2 µM)	44.7	171	153	79.9	105	175	226	54.4	163
C/C(O)=C(\C#N)C(=O)Nc1cc(Br)ccc1Br + CC(C)CCN1c2nc(Nc3cc(F)c(O)c(F)c3)ncc2N(C)C(=O)C1C [BID1870] (first compound 2 µM, partner dose 0.2 µM)	42.8	182	71.6	91.2	43.4	239	105	168	297
Cn1c(Nc2ccc(C(F)(F)F)cc2)nc2cc(Oc3ccnc(-c4ncc(C(F)(F)F)[nH]4)c3)ccc21 + Cc1cc(SCc2sc(-c3ccc(C(F)(F)F)c(F)c3)nc2C)ccc1OCC(=O)O [GW0742] (first compound 0.08 µM, partner dose 2 µM)	277	483	400	204	131	644	93.7	106	104
Cn1cncc1[C@@](N)(c1ccc(Cl)cc1)c1ccc2c(c1)c(-c1cccc(Cl)c1)cc(=O)n2C [tipifarnib] + C/C(O)=C(\C#N)C(=O)Nc1cc(Br)ccc1Br [LFM-A13] (first compound 0.01 µM, partner dose 2 µM)	71.7	142	82.3	172	15.6	249	114	133	86.4
C/C(O)=C(\C#N)C(=O)Nc1cc(Br)ccc1Br + Cc1cc([N+](=O)[O-])ccc1NS(=O)(=O)c1cc(Cl)ccc1Cl [FH535] (first compound 2 µM, partner dose 1 µM)	90.1	67	65.6	47.8	177	101	168	3230	259

Taken from above:
CC(C)(C)c1cnc(CSc2cnc(NC(=O)C3CCNCC3)s2)o1 + C/C(O)=C(\C#N)C(=O)Nc1cc(Br)ccc1Br [LFM-A13] (first compound 0.01 µM, partner dose 2 µM) | cleaved PARP positive nuclei fraction (C32) [%]: 114
C[As](C)SC[C@H](NC(=O)CC[C@H](N)C(=O)O)C(=O)NCC(=O)O [Darinaparsin] + Cc1cc(SCc2sc(-c3ccc(C(F)(F)F)c(F)c3)nc2C)ccc1OCC(=O)O [GW0742] (first compound 0.4 µM, partner dose 2 µM) | cleaved PARP positive nuclei fraction (A2058) [%]: 95.1
